Experimental findings from paper PMC4728557 are described below.

Sequences of proteins named here, by UniProt entry; tags and fusion partners are left off. Residues count along the entry.
UniProt Q08722, residues 19-323: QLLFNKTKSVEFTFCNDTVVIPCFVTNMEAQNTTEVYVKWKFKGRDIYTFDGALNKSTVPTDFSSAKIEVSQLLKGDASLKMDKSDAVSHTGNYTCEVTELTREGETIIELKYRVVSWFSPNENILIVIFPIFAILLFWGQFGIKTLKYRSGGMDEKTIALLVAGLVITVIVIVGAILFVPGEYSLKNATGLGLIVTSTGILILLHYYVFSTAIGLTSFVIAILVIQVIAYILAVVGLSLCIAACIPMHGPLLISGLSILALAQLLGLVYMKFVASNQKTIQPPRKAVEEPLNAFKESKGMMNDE
UniProt P07996, residues 19-1170: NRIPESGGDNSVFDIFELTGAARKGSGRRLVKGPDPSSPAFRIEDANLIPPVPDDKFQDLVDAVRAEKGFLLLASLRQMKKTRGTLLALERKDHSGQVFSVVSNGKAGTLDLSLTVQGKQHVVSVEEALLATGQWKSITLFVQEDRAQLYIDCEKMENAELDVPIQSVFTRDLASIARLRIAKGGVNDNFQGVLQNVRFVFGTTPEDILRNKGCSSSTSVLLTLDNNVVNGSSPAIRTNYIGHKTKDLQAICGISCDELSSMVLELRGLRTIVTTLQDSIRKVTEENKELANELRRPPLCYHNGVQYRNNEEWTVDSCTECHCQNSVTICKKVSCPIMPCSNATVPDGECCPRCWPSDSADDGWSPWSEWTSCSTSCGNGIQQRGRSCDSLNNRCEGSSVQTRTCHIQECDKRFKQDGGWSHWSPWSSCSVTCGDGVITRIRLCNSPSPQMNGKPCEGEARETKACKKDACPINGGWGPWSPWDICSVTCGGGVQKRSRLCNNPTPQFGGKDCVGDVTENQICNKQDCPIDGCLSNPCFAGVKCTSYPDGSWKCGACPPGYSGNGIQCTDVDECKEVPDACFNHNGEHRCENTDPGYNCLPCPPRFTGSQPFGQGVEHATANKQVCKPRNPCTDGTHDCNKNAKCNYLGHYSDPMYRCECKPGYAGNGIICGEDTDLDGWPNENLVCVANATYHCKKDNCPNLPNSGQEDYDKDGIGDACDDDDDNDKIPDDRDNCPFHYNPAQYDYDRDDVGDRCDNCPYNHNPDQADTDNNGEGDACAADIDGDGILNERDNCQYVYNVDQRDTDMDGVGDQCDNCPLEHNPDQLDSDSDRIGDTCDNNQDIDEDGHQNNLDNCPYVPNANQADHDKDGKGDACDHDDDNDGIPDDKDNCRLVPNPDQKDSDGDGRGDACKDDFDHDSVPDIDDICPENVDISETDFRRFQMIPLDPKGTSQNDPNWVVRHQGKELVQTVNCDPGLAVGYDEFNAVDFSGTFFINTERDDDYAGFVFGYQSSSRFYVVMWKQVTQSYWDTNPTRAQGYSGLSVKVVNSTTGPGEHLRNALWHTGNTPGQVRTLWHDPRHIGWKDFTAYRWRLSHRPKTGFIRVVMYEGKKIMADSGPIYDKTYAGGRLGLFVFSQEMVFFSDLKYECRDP

Results are given in words; binding and its absence hold for the method and conditions named. In cells and extracts the contact can be indirect. Some results given as binding are weak or reduced against the parent protein; the word gives no strength.

In assay [1] the target is CD47 (human (endogenous in THP-1 and primary human macrophages)) (UniProt Q08722). In words: co-IP; cells incubated 15 min with purified TSP1 (0.1-100 ng/ml) or recombinant TSP1 domains before lysis; read-out is the loss of CD14 from the anti-CD47 (B6H12) immunoprecipitate; only the binder purified.
For assay [2] the target is unchanged. In words: co-IP; lysates (NP-40 buffer: 50 mM Tris pH 8.0, 150 mM NaCl, 1% NP-40) of differentiated THP-1 cells and of primary human monocyte-derived macrophages; precipitation with anti-CD47 B6H12 or isotype control and Protein G beads at 4 °C; blot for CD14; cells untreated or treated 15 min with TSP1 or its recombinant domains.

For “thrombospondin-1 (from UniProt P07996 19-1170)”, the binding result in assay [1] is “binds”.

B1: CD14 (receptor, UniProt P08571 20-345)
chain: TTPEPCELDDEDFRCVCNFSEPQPDWSEAFQCVSAVEVEIHAGGLNLEPFLKRVDADADPRQYADTVKALRVRRLTVGAAQVPAQLLVGALRVLAYSRLKELTLEDLKITGTMPPLPLEATGLALSSLRLRNVSWATGRSWLAELQQWLKPGLKVLSIAQAHSPAFSCEQVRAFPALTSLDLSDNPGLGERGLMAALCPHKFPAIQNLALRNTGMETPTGVCAALAAAGVQPHSLDLSHNSLRATVNPSAPRCMWSSALNSLNLSFAGLEQVPKGLPAKLRVLDLSCNRLNRAPQPDELPEVDNLTLDGNPFLVPGTALPHEGSMN
As to B1, in assay [2], the binding result is listed as “binds”.
